Measurements as given in the supplement of paper PMC10735217.
Structures can show the parent of a compound that is named as a salt. The list shows a part of the results. Single values are uncertain here, since repeats match poorly.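 The human kidney-derived cells carry a stably integrated construct of eight TEAD-binding elements driving luciferase, read by luminescence in a drug-repurposing library screen. A compound counts as a hit when its signal is more than five robust Z scores above the plate mean.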

Tested on: HEK293A TEAD-LUC reporter
Assay: TEAD-luciferase reporter activity (YAP activation), robust Z score vs plate; higher = stronger YAP/TEAD activation
Conditions: 24 h

Structure (SMILES) | TEAD-luciferase reporter activity (compound concentration: 200 nM) | TEAD-luciferase reporter activity (compound concentration: 10 uM) | TEAD-luciferase reporter activity (compound concentration: 2 uM)
FC(F)(F)Oc1ccc(-c2ccc3nnc(C(F)(F)F)n3c2)cc1 | inactive: -0.431 | inactive: 3 | 
CCC1NC(=O)C(CCCCN)NC(=O)C(Cc2c[nH]c3ccccc23)NC(=O)C(Cc2ccc(O)cc2)NC(=O)C(NC(=O)C(Cc2ccccc2)NS(=O)(=O)CCN2CCN(CCO)CC2)CSSCC(C(=O)NC(C(N)=O)C(C)O)NC1=O (stereo not drawn) | inactive: -2.52 | inactive: 0.0877 | inactive: 0.415
CC(C)Cn1nc(-c2ccccc2)c(-c2ccccc2)c1CC(=O)O | inactive: 0.246 | inactive: 2.37 | inactive: 2.3
O=C(C1CN(c2ccccc2)C(=O)N1)N1CCCC1 (stereo not drawn) | inactive: 0.476 | inactive: 1.47 | 
COc1ccc(CN2CCC(N3Cc4ccccc4C3=O)CC2)cc1 | inactive: 1.19 | inactive: 1.61 | 
OC[C@H]1O[C@@H](Oc2cc3c(O)cc(O)cc3[o+]c2-c2ccc(O)c(O)c2)[C@H](O)[C@@H](O)[C@@H]1O [Cyanidin-3-glucoside] | inactive: 1.45 | inactive: -1.06 | inactive: -0.135
CCC(C)(C)NC(=O)c1ccc(NC(C)=O)cc1 [NRTs, Centaur] | inactive: -0.104 | inactive: -1.44 | 
CCC(C)(C)NC(=O)c1ccc(NC(C)=O)cc1 |  |  | inactive: -1.58
COc1ccc(CCNCC(O)COc2ccc(OCC(C)=O)c3c2CCC(=O)N3)cc1OC (stereo not drawn) | inactive: -2.31 | inactive: 1.4 | inactive: -1.12
CCOS(=O)(=O)c1cc(C(C)(C)C)cc2cc(C(C)(C)C)ccc12 | inactive: -0.291 | inactive: 0.709 | inactive: -0.432
Cc1ccc(C(=O)N(CCCN)C(c2oc3cc(Cl)ccc3c(=O)c2Cc2ccccc2)C(C)C)cc1 (stereo not drawn) | inactive: 3.23 | inactive: -0.316 | inactive: 0.166
Cc1onc(NS(=O)(=O)c2ccccc2-c2ccc(-c3ncco3)cc2CN(C)C(=O)CC(C)(C)C)c1C [Edonentan hydrate] | inactive: -0.62 | inactive: 0.321 | inactive: 0.771
CC(=O)NC[C@H]1CN(c2ccc(N3CCOCC3)c(F)c2)C(=O)O1 | inactive: -1.67 | inactive: 2.02 | 
CC(=O)NC[C@H]1CN(c2ccc(N3CCOCC3)c(F)c2)C(=O)O1 [linezolid] |  |  | inactive: -1.03
CC(=O)NC[C@H]1CN(c2ccc(N3CCOCC3)c(F)c2)C(=O)O1 [Linezolid] |  |  | inactive: -0.689
CCNC(=O)OC1CCN(c2nncc3cc(OC)c(OC)cc23)CC1 | inactive: -1.45 | inactive: 2.38 | inactive: -1.53
COc1cc(/C=C/C(N)=O)cc(OC)c1OC | inactive: -0.155 | inactive: 2.57 | inactive: -1.82
CCCc1ccc(NS(=O)(=O)Cc2ccccc2)c(=O)n1CC(=O)NCc1ccccc1OC | inactive: 0.226 | inactive: 0.327 | inactive: -1.31
CC(C)CCCC(C)C1CCC2C3CCC4C[C@@H](N5CC(OS(C)(=O)=O)C5)CC[C@]4(C)C3CC[C@]12C (stereo partly drawn) | inactive: -0.424 | inactive: 3.48 | inactive: 0.0269
C=CCCCCCSC(=N)N | inactive: -1.81 | inactive: -1 | inactive: 1.39
CSc1ccc(Oc2ccc(S(N)(=O)=O)cc2CN(C)C)cc1 | inactive: -0.202 | inactive: 1.26 | inactive: -0.504
Cc1cc(Cl)cc2nc(N3CCCNCC3)oc12 | inactive: -0.365 | inactive: 1.79 | inactive: -1.35
CCN(CC)CCOCCOC(=O)C(CC)(CC)c1ccccc1 |  |  | inactive: -0.673
CCN(CC)CCOCCOC(=O)C(CC)(CC)c1ccccc1 [Oxeladin citrate salt] | inactive: 0.0196 | inactive: 3.91 | 
Cn1ncc(Cl)c1-c1cc(C(=O)N[C@H](CN)Cc2cccc(F)c2)sc1Cl [Afuresertib] | inactive: 2.92 | inactive: 4.79 | inactive: 1.69
Cn1c(COc2ccc(CC3SC(=O)NC3=O)cc2)nc2ccccc2c1=O (stereo not drawn) [Balaglitazone] | inactive: -0.408 | inactive: 0.944 | inactive: -0.834
c1ccc(-c2ccc3ncnc(Nc4ccc(N5CCOCC5)cc4)c3c2)cc1 | inactive: 0.175 | inactive: -0.686 | inactive: -1.13
COc1cc2c(cc1OC(C)C)[C@H](c1ccc(Cl)cc1)N(c1ccc(N(C)C[C@H]3CC[C@H](N4CCN(C)C(=O)C4)CC3)cc1)C(=O)C2 | inactive: -1.1 | inactive: -0.297 | inactive: -1.69
CN(C)C(=N)NC(=N)N [metformin, buccal] |  |  | inactive: 0.52
CN(C)C(=N)NC(=N)N [metformin, buccal, Generex] | inactive: -0.988 | inactive: 0.563 | 

Reformatted with each value named: entries from further up
CSc1ccc(Oc2ccc(S(N)(=O)=O)cc2CN(C)C)cc1
  TEAD-luciferase reporter activity (compound concentration: 200 nM): inactive: -0.202; TEAD-luciferase reporter activity (compound concentration: 10 uM): inactive: 1.26; TEAD-luciferase reporter activity (compound concentration: 2 uM): inactive: -0.504
Cc1cc(Cl)cc2nc(N3CCCNCC3)oc12
  TEAD-luciferase reporter activity (compound concentration: 200 nM): inactive: -0.365; TEAD-luciferase reporter activity (compound concentration: 10 uM): inactive: 1.79; TEAD-luciferase reporter activity (compound concentration: 2 uM): inactive: -1.35
